Experimental findings from US20250084173A1 (4B TECHNOLOGIES SUZHOU, published 2025) are described below.

Sequences of proteins named here, by UniProt entry; tags and fusion partners are left off. Residues count along the entry.
UniProt P04629, residues 194-423: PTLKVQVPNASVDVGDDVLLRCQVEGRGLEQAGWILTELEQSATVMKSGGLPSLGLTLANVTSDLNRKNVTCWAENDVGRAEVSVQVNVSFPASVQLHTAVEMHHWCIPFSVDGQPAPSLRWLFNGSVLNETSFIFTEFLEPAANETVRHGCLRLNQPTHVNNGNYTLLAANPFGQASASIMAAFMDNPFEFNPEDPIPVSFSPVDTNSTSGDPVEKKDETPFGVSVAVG
UniProt P35739, residues 33-418: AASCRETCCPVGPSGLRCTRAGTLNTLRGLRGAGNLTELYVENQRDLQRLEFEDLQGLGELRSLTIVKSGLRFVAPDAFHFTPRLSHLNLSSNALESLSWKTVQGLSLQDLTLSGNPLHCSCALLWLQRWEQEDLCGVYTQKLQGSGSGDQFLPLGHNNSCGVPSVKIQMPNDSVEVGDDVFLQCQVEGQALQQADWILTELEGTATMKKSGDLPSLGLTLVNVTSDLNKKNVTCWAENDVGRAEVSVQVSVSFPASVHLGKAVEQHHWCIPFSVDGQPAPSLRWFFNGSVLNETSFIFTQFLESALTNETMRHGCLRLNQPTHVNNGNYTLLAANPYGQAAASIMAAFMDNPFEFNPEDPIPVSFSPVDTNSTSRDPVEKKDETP

Assay [1] addresses D4-TM of human TrkA ECD (human) (UniProt P04629). The experiment in a line: ELISA on TrkA ECD constructs (FIG. 1e).
Assay [2] concerns the target recombinant rat TrkA ECD protein (rat) (UniProt P35739). The experiment in a line: ELISA on recombinant TrkA ECD proteins (FIG. 1b).

No constants are given. Whether binding was seen depends on the method and setting. Some binding calls cover weakened binding; strength is not graded here.

B1: 27A6 (antibody, mouse IgG1, V domains shown)
VH: QVQLQQSGAELMEPGASVKISCKATGYTFSRYWIEWVQQRPGHGLEWIGEILPGSGTTNYNENFRGKATFTADTSSNTVYMQLISLTSEDSAVYYCARSYYGDFDAYWGQGTLVTVSA
VL: QAVVTQESALTTSPGETVTLTCRSSIGAVTTSNHANWVQEKPDHLFTGLIGGTNNRAPGVPARFSGSLIGDKAVLTITGAQTEDEAIYFCALWYSNHWVFGGGTKLTVLG
notes: also called TrkA antibody; TrkA antibody of the present application
Consider B1, for which the binding entry in assay [1] and in assay [2] was “binds” each time.
